Measurements taken from PubChem BioAssay (Tox21).
Several values for one entry are separate records, joined by “and”; a condition that tells them apart may be missing. Equal entries are not always repeated. The inconclusive results got no clear call from the source; some entries with a clear call stand among them for comparison. For part of these data: Potencies beside an inconclusive call are fits to weak or partial responses and may not hold up. Activity calls are given as the source filed them. Unless noted, the call rests on the fitted dose curve.

Chains of the proteins cited; added tags and fusions are not shown.
UniProt P28223, whole entry, looked up: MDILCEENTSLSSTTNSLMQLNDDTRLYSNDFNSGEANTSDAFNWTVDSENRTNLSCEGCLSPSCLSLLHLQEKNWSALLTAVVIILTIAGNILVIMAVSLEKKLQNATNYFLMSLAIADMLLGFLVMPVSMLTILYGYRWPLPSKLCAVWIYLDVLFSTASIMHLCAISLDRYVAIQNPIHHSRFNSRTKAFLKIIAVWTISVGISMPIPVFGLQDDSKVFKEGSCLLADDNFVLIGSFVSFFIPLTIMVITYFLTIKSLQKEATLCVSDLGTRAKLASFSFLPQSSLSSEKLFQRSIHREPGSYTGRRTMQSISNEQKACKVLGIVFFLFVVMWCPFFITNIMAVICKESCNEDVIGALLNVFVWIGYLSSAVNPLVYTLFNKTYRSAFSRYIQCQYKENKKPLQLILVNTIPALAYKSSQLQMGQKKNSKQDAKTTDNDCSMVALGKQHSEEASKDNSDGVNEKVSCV
UniProt P14416, whole entry, looked up: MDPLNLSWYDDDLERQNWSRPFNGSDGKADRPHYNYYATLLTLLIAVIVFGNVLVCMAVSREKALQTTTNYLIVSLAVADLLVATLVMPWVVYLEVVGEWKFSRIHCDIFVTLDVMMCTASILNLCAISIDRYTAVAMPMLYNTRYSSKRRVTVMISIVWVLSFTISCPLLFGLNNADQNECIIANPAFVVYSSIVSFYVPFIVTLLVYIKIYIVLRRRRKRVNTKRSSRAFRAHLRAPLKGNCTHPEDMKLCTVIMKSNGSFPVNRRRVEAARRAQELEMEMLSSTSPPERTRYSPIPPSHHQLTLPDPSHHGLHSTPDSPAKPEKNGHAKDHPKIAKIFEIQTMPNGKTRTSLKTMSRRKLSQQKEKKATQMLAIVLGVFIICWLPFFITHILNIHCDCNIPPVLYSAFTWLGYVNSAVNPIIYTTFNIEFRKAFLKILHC

Legend:
[1] = target: 5-hydroxytryptamine receptor 2A (Homo sapiens) (UniProt P28223); experiment: 5-hydroxytryptamine receptor 2A (HTR2A) small molecule antagonists, cell-based qHTS assay (AID 1963586); further: nearly all actives have a fitted effect of over 45% in size; further: potency means the concentration at half of the fitted maximal effect
Summary of the method: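 CHO cells stably expressing human HTR2A were plated for 18 h at 37 C, then loaded with calcium dye for 1 h. Compounds were preincubated 5 min at room temperature before DOI (4 nM solution) was added. Kinetic fluorescence was read for 3 min.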

[2] = cAMP Responsive Elements (CRE) small molecule agonists, cell-based qHTS assay (AID 1963590); conditions: CRE-bla HEK293T, beta-lactamase FRET ratio, 3 h; activation: at 92.4 µM (top of the series) unless noted; further: potency means the concentration at half of the fitted maximal effect
Summary of the method: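 HEK 293T cells stably bearing CRE-bla were plated at 2,000 cells per well and rested 18 h. Compounds, positive controls or DMSO were added for 3 h at 37 C. LiveBLAzer B/G substrate was then loaded for 2 h at room temperature.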

[3] = target: Beta-2 adrenergic receptor (Homo sapiens) (UniProt P07550); experiment: Adrenergic beta2 receptor (ADRB2) small molecule antagonists, cell-based qHTS assay (AID 1963592); conditions: CHO-ADRB2 cells, isoproterenol-stimulated cAMP HTRF ratio, 0.5 h; activity change, negative = inhibition: at 92.4 µM (top of the series) unless noted; further: nearly all actives have a fitted effect of over 50% in size; further: potency means the concentration at half of the fitted maximal effect
Summary of the method: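 Assay format: CHO-ADRB2 cells, 18-20hr seeding at 37C/5% CO2, then compound plus 1nM isoproterenol agonist mix for 0.5hr RT. Homogeneous time-resolved fluorescence cAMP detection after 1hr, expressed as 665/615 nm ratio.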

[4] = target: Beta-2 adrenergic receptor (Homo sapiens) (UniProt P07550); experiment: Adrenergic beta2 receptor (ADRB2) small molecule agonists, cell-based qHTS assay (AID 1963593); conditions: CHO-ADRB2 cells, cAMP HTRF, 30 min; activation: at 92.4 µM (top of the series) unless noted; further: potency means the concentration at half of the fitted maximal effect;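 on activation: CHO cells stably overexpressing human ADRB2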
Summary of the method: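 CHO cells stably over-expressing ADRB2 were plated overnight at 37C, then dosed with compounds plus a stimulation mix containing 100uM IBMX and 25uM Ro-20-1724 for 0.5hr at room temperature. cAMP was measured by HTRF competition, 1hr.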

[5] = target: D(2) dopamine receptor (Homo sapiens) (UniProt P14416); experiment: Dopamine D2 receptor (DRD2) small molecule antagonists, cell-based qHTS assay (AID 1963595; active means well fitted inhibition curve with a large enough effect in the signal ratio in the repeat runs, with a control signal flat; inconclusive means weak or mixed curves, or effect the other way; the % refers to the signal ratio; further: potency means the concentration at half of the fitted maximal effect); conditions: HEK293-DRD2 cAMP HTRF antagonist mode; activity change, negative = inhibition: at 92.4 µM (top of the series) unless noted
Summary of the method: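 DRD2-HEK293; 0.1 mM Ro20-1724; cpd 10 min RT; NKH477 200 nM + quinpirole 12 nM, 30 min RT; HTRF cAMP (cAMP-d2/anti-cAMP cryptate), 665/620 nm ratio after 1 h.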

[6] = cAMP Responsive Elements (CRE) small molecule antagonists, cell-based qHTS assay (AID 1963591; active means well fitted inhibition curve with a large enough effect in the signal ratio in the repeat runs, not every such curve was filed as active; inconclusive means weak or mixed curves, or effect the other way; the % refers to the signal ratio; further: potency means the concentration at half of the fitted maximal effect); conditions: CRE-bla HEK293T, beta-lactamase FRET ratio; activity change, negative = inhibition: at 92.4 µM (top of the series) unless noted
Summary of the method: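 First, CRE-bla HEK293T cells settled 18 h at 37 C. Next, compound and 0.25 uM final NKH477 were applied for 3 h. Last, LiveBLAzer B/G substrate was loaded for 2 h at room temperature.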

[7] = target: D(2) dopamine receptor (Homo sapiens) (UniProt P14416); experiment: Dopamine D2 receptor (DRD2) small molecule agonists, cell-based qHTS assay (AID 1963594); conditions: HEK293-DRD2 cAMP HTRF, agonist mode, 30 min; activation: at 92.4 µM (top of the series) unless noted; further: nearly all actives have a fitted effect of over 35% in size
Summary of the method: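 HEK293 cells stably expressing human DRD2, pre-treated with PDE inhibitor Ro20-1724 (0.1 mM final) and compound 10 min at room temperature, then stimulated with NKH477 (200nM […]) for 30 min. cAMP read by HTRF (665/620 nm).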
On the % scale 0 is the no-effect control and ±100 the full control effect.

In the case of `CO[C@]12C[C@@H](COC(=O)c3cncc(Br)c3)CN(C)[C@@H]1Cc1cn(C)c3cccc2c13`, the Potency [1] is reported as active: 0.0729 µM, the Potency [2] is reported as “inactive” and the Potency [3] is reported as active: 13.3 µM. The Potency [4] was inconclusive: 13.3 µM [inhibitor, partial curve] and the Potency [5] was active: 26.6 µM.
In the case of `Cn1c(N)c(N=O)c(=O)n(C)c1=O`, the Potency [1] is reported as “inactive”, the Potency [2] is reported as inconclusive: 70.8 µM and the activation [4] is reported as inconclusive: 0.222%.
In the case of `CNS(=O)(=O)CCc1ccc2[nH]cc(C3CCN(C)CC3)c2c1`, the Potency [1] is reported as inconclusive: 20.5 µM [inhibitor, partial curve, poor fit], the Potency [2] is reported as “inactive” and the Potency [3] is reported as inconclusive: 15 µM [inhibitor, full curve, poor fit]. For the same compound, the activation [4] was inconclusive: -35.6% [at 42.5 µM].
With `CC(C)(C)c1cc(CCC(=O)NCCCCCCNC(=O)CCc2cc(C(C)(C)C)c(O)c(C(C)(C)C)c2)cc(C(C)(C)C)c1O` the Potency [1] was “inactive”, the Potency [2] was inconclusive: 4.86 µM [rising, full curve, poor fit] and the activity change, negative = inhibition [6] was inconclusive: 0.44%. The Potency [3] was “inactive” and the activation [4] was inconclusive: 33%.
For `CC(=O)OC1CCCCC1`, the Potency [1] was inconclusive: 0.211 µM [inhibitor, full curve, poor fit], the Potency [2] was “inactive” and the activation [4] was inconclusive: 5.93%.
In the case of `CN1C(CSCC(F)(F)F)Nc2cc(Cl)c(S(N)(=O)=O)cc2S1(=O)=O` (stereo not drawn), the Potency [1] is reported as inconclusive: 5.16 µM [inhibitor, single point], the Potency [2] is reported as “inactive” and the Potency [4] is reported as “inactive”.
For `COc1ccc(-c2cc(C(F)F)nn2-c2ccc(S(N)(=O)=O)cc2)cc1F`, the Potency [1] was inconclusive: 23.1 µM [inhibitor, single point], the Potency [2] was inconclusive: 23.7 µM [fluorescent, partial curve] and the Potency [6] was inconclusive: 23.7 µM [activator, partial curve]. For the same compound, the Potency [3] was inconclusive: 21.1 µM [inhibitor, partial curve, poor fit] and the Potency [4] was inconclusive: 2.11 µM [inhibitor, partial curve, poor fit].
For `C=CCCCCCCCCC=O`, the Potency [1] was inconclusive: 0.149 µM [inhibitor, single point], the Potency [2] was inconclusive: 54.5 µM [rising, partial curve] and the activity change, negative = inhibition [6] was inconclusive: 18%. For the same compound, the Potency [3] was “inactive” and the activation [4] was inconclusive: -4.51%.
In the case of `CCCCN(CCCC)CCCOC(=O)c1ccc(N)cc1`, the Potency [1] is reported as inconclusive: 5.16 µM [inhibitor], the Potency [2] is reported as inconclusive: 26.6 µM [rising, partial curve] and the activity change, negative = inhibition [3] is reported as inconclusive: -9.92% [at 42.5 µM]. For the same compound, the Potency [4] was inconclusive: 29.8 µM [inhibitor, partial curve, poor fit].
For `CCCCCCC(=O)O`, the Potency [1] was inconclusive: 8.4 µM [inhibitor, single point], the Potency [2] was “inactive” and the activity change, negative = inhibition [3] was inconclusive: 0.504%. For the same compound, the activation [4] was inconclusive: -40.3%.
For `CCC(=O)O[C@]1(C(=O)COC)[C@@H](C)C[C@H]2[C@@H]3CCC4=CC(=O)C=C[C@]4(C)C3(F)[C@@H](O)C[C@@]21C` (stereo partly drawn), the Potency [1] was inconclusive: 2.05 µM [inhibitor, partial curve, poor fit], the Potency [2] was inconclusive: 29.8 µM and the activity change, negative = inhibition [6] was inconclusive: 10.4% [at 42.4 µM]. For the same compound, the activation [4] was inconclusive: -30.7% [at 42.5 µM].
In the case of `C=CC(C)C#N` (stereo not drawn), the Potency [1] is reported as “inactive”, the Potency [2] is reported as “inactive” and the activation [4] is reported as inconclusive: 21.5%.
For `O=C(O)c1cccc(O)c1`, the Potency [1] was inconclusive: 0.0268 µM [inhibitor, single point], the Potency [2] was “inactive” and the Potency [7] was “inactive”. For the same compound, the Potency [5] was inconclusive: 0.0309 µM [rising, full curve, poor fit].
For `OCc1c2ccccc2cc2ccccc12`, the Potency [1] was “inactive” and the Potency [6] was “inactive”.
For `CCC(C)N` (stereo not drawn), the Potency [1] was “inactive”, the Potency [2] was “inactive” and the activation [4] was inconclusive: -33.3%.
With `CCC=O` the Potency [1] was inconclusive: 0.0136 µM [inhibitor, full curve, poor fit], the Potency [2] was “inactive” and the Potency [4] was inconclusive: 6.23 µM [inhibitor, single point].
For `Cc1ccc(C)c(C)c1`, the Potency [1] was inconclusive: 5.55 µM [inhibitor, partial curve, poor fit], the Potency [2] was “inactive” and the activation [4] was inconclusive: 11% and inconclusive: -1.02%.
For `COc1cc(CCC(C)=O)ccc1O`, the Potency [1] was active: 3.75 µM, the Potency [2] was “inactive” and the Potency [4] was “inactive”.
For `CC(O)COC(C)(C)C` (stereo not drawn), the Potency [1] was “inactive”, the Potency [2] was “inactive” and the Potency [6] was “inactive”. The activation [4] was inconclusive: -4.51%.
For `O=C1c2ccccc2C(=O)c2cc(O)ccc21`, the Potency [1] was inconclusive: 4.21 µM [inhibitor, full curve, poor fit], the Potency [2] was inconclusive: 13.7 µM [fluorescent, full curve] and the Potency [4] was “inactive”.
In the case of `NC(N)=NS(=O)(=O)c1ccc(N)cc1`, the Potency [1] is reported as inconclusive: 23.1 µM [inhibitor, single point], the Potency [2] is reported as “inactive” and the Potency [3] is reported as “inactive”. For the same compound, the Potency [4] was inconclusive: 0.298 µM [inhibitor] and the activity change, negative = inhibition [5] was inconclusive: -2.83% [at 42.5 µM].
